Laboratory results as given in paper PMC3514159.
No constants are given. Whether binding was seen depends on the method and setting. Binding seen in cells or lysates may run through a third protein. Some binding calls cover weakened binding; strength is not graded here. For some assays here: Sequences can lack the tags named with a protein.

Protein sequences, listed by entry. Tags and fused reporters are not part of them.
UniProt Q9Y2Y4: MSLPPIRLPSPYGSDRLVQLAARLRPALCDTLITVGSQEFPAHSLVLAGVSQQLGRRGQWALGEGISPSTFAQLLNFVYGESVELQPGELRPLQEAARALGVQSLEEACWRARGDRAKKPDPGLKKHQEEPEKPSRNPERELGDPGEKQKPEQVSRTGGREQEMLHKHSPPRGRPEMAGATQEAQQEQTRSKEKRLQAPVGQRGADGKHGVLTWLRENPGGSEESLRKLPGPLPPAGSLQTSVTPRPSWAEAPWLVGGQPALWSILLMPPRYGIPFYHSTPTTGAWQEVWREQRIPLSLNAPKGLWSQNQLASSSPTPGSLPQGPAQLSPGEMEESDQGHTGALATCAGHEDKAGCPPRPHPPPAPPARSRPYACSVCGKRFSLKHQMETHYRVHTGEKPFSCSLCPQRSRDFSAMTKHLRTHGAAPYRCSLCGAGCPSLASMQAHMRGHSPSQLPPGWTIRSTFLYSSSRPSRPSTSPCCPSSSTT
UniProt Q8WUM4: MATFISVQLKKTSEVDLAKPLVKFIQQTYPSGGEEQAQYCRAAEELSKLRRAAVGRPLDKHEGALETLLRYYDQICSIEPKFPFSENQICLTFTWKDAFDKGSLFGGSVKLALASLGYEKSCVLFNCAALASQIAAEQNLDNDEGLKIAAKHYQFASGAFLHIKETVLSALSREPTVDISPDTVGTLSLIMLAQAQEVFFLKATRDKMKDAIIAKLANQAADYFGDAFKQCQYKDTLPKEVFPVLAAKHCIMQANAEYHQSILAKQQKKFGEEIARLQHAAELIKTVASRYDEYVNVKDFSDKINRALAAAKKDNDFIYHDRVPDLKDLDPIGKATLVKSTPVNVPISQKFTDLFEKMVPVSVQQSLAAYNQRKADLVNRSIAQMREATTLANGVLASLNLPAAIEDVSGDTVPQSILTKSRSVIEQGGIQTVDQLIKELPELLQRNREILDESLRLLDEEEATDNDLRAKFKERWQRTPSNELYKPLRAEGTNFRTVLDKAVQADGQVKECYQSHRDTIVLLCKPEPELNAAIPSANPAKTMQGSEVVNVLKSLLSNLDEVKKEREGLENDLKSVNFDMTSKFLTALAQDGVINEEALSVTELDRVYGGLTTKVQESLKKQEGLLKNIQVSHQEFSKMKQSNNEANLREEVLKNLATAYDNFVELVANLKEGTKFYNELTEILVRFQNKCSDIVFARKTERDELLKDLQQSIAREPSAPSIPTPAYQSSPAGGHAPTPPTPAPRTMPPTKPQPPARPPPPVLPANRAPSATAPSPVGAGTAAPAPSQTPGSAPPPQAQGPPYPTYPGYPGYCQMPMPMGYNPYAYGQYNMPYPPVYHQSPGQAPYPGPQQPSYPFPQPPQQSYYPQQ
UniProt P09022: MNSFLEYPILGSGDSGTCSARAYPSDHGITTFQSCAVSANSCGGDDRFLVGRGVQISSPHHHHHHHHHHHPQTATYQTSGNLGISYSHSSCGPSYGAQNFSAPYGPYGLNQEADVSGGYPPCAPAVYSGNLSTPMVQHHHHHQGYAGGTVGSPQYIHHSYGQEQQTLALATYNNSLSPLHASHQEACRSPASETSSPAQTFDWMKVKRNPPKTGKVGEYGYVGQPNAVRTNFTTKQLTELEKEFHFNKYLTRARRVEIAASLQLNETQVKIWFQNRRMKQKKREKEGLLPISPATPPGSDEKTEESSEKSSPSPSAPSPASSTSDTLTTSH

Key:
Test in all cases: pull-down; GST-hORF and FLAG-Hoxa1 co-expressed in COS7 or HEK293T; cleared lysate (Tris-HCl pH7.5 20mM, NaCl 120mM, EDTA 0.5mM, NP40 0.5%, glycerol 10%) overnight on glutathione-agarose beads, 3 washes; anti-FLAG western blot
[1] = target: zinc finger and BTB domain containing 32 (human) (UniProt Q9Y2Y4)
keratin 81 (human) = target: T1, keratin 81 (human) (UniProt Q14533)
T1 sequence: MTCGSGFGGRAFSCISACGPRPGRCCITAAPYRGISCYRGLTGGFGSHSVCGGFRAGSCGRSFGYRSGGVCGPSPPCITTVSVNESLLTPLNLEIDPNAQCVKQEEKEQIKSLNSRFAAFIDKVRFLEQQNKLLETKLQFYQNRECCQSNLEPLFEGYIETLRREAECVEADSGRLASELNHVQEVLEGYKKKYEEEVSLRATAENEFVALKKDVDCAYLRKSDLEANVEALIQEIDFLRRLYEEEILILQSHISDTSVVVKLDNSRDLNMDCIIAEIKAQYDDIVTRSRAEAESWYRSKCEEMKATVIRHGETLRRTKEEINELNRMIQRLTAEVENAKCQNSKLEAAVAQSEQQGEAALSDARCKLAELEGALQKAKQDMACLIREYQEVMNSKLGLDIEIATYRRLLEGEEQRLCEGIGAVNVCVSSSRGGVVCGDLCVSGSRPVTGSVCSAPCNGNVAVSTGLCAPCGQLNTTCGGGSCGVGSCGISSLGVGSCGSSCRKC

[2] = target: T2, mannosyl (α-1,6-)-glycoprotein β-1,6-N-acetyl-glucosaminyltransferase, isozyme B (human) (UniProt Q3V5L5)
T2 sequence: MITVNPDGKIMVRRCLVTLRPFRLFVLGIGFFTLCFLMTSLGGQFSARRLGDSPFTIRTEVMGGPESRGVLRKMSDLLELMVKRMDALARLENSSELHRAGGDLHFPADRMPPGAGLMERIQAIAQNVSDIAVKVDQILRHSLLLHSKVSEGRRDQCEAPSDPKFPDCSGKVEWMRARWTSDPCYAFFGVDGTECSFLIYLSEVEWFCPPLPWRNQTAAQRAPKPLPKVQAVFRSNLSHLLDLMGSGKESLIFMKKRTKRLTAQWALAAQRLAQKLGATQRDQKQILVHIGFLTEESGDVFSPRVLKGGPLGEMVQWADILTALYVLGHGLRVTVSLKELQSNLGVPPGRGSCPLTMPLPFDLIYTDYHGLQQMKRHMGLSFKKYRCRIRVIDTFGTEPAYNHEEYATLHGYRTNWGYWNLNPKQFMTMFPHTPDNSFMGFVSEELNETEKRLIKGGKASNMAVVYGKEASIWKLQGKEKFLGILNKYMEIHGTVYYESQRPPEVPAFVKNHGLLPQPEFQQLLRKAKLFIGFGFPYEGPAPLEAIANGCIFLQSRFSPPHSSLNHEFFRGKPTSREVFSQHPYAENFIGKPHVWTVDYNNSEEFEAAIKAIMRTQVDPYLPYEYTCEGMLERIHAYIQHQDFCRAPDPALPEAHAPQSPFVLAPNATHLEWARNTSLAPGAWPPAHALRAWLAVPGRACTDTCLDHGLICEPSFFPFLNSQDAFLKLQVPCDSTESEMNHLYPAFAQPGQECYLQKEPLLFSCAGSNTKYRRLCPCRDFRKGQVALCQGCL

[3] = target: T3, O-linked N-acetylglucosamine (GlcNAc) transferase (human) (UniProt O15294)
T3 sequence: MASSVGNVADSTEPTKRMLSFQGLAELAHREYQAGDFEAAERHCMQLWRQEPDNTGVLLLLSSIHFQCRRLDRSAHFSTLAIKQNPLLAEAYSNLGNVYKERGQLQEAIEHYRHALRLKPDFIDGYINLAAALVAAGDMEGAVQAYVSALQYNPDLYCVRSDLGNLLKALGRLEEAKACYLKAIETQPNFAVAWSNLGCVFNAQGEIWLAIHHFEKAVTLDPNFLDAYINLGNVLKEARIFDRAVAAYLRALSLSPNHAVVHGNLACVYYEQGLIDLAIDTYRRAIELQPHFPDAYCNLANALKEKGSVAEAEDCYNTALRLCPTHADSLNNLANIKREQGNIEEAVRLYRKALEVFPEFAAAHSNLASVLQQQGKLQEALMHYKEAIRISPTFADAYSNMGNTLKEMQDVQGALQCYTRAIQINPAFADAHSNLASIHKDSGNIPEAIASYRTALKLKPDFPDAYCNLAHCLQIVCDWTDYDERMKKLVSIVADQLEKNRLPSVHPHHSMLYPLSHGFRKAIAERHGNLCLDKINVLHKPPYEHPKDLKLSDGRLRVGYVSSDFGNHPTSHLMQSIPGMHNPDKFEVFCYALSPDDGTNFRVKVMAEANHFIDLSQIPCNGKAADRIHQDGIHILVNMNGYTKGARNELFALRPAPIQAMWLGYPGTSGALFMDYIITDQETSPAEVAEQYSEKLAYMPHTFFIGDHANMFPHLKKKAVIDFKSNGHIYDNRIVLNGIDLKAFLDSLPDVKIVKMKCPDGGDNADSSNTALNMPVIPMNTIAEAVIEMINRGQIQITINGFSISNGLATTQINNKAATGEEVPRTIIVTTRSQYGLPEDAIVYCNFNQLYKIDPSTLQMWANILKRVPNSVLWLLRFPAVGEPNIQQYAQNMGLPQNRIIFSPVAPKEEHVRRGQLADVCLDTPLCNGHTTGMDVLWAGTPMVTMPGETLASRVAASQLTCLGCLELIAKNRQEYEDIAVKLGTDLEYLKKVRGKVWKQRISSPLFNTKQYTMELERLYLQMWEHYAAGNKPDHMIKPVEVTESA

[4] = target: programmed cell death 6 interacting protein (human) (UniProt Q8WUM4)

Measured: binding

FLAG-Hoxa1 (from UniProt P09022 1-331)
binds: all assays above
